Measured values: publication PMC9852593
These are yes or no findings as the source states them, for the method shown. Binding seen in cells or lysates may run through a third protein. Some results given as binding are weak or reduced against the parent protein; the word gives no strength.

The chains behind the UniProt entries cited, without tags or fusion partners. Residues count along the entry.
UniProt P25445, residues 26-335: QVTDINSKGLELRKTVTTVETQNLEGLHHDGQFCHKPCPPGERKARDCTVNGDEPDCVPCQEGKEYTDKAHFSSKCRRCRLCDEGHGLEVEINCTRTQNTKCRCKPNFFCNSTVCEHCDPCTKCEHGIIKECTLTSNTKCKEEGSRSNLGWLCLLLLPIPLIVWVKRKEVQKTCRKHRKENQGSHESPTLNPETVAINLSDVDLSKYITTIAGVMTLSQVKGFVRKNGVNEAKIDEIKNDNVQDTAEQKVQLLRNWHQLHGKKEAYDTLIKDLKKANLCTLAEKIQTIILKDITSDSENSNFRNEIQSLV
UniProt P08581, residues 25-1390: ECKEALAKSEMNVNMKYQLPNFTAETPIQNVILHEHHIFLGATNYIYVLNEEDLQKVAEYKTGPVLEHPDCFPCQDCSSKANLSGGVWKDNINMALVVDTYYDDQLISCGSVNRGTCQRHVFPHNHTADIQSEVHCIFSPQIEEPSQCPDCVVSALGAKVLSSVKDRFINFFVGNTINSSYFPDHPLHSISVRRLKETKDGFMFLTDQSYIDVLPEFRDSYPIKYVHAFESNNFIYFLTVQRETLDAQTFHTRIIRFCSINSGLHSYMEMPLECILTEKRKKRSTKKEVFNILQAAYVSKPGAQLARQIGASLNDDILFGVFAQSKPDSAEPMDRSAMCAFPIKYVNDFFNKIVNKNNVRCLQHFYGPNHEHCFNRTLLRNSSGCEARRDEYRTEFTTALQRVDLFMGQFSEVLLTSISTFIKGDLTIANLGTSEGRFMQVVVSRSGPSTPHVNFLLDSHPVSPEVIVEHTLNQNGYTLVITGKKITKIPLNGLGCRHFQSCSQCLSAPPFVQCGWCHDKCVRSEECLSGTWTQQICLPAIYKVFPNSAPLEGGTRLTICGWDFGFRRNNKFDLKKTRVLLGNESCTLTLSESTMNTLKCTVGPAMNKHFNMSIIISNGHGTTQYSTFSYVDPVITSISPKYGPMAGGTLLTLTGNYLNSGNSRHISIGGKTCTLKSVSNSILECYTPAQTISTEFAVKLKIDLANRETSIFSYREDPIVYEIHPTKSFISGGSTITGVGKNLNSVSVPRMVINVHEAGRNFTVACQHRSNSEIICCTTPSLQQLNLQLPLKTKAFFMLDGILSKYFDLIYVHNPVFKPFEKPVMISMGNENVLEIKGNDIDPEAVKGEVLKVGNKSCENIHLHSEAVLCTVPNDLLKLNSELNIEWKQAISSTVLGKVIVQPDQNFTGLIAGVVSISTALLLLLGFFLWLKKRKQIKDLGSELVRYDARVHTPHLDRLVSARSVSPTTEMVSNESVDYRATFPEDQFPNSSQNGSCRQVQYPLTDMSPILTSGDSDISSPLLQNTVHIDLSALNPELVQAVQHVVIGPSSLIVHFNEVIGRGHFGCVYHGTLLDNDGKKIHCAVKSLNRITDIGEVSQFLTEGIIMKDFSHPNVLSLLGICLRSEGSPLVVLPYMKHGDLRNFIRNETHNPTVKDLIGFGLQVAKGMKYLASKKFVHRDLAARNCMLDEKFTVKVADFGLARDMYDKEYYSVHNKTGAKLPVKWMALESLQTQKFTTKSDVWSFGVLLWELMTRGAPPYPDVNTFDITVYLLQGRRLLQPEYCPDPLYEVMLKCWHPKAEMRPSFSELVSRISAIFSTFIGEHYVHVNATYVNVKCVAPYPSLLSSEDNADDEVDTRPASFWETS
UniProt P16056, residues 25-1379: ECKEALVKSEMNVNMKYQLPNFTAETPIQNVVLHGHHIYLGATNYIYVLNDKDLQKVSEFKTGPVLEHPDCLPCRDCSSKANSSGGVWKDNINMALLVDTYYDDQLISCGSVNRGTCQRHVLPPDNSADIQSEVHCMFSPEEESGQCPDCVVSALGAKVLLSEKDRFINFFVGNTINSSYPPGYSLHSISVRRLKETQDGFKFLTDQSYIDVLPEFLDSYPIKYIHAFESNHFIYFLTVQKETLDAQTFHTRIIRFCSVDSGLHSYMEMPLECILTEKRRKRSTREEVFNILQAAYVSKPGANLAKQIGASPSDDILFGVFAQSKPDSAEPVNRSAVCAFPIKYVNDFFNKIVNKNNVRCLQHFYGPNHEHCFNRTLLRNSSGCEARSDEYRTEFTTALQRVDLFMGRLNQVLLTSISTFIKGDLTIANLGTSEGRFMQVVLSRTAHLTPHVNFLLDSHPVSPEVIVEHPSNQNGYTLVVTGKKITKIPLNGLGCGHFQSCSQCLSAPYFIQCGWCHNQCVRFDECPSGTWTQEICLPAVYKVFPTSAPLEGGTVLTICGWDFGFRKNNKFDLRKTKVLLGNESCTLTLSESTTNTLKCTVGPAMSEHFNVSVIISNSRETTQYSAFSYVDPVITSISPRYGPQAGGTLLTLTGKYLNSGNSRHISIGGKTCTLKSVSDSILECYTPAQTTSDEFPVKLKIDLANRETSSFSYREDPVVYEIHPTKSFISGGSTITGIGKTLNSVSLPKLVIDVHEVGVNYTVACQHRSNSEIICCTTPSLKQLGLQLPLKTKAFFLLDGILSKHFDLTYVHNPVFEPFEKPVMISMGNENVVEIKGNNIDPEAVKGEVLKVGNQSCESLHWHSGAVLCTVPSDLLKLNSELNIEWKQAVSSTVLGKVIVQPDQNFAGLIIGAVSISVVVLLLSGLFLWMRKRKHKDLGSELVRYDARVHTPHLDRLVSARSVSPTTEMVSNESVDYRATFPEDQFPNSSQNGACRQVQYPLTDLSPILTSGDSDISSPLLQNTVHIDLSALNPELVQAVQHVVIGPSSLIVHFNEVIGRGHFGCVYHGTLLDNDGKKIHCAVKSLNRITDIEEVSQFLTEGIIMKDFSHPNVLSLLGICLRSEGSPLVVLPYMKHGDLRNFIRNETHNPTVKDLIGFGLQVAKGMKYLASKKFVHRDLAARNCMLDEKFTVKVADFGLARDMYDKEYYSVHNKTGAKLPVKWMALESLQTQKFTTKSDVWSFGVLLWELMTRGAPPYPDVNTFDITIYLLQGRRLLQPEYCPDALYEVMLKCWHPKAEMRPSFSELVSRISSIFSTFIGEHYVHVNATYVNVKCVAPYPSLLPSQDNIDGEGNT

Key:
[1] = biological target: Fas (death receptor), human (human (endogenous in peripheral blood CD8+ T cells)) (UniProt P25445); assay: co-IP; lysates of naive and PHA-stimulated healthy human peripheral blood CD8+ T cells, with or without 400 ng/mL rHGF for 48 and 72 h; IP with anti-Fas or anti-c-Met, IB with anti-c-Met or anti-Fas
[2] = biological target: T1, Fas (death receptor), mouse (mouse (endogenous in splenic CD8+ T cells of C57BL/6 mice)) (UniProt P25446); assay: co-IP; lysates of naive and PHA-stimulated mouse splenic CD8+ T cells not treated with rHGF (time zero); IP with anti-Fas or anti-c-Met on protein A/G magnetic beads, IB with anti-c-Met or anti-Fas
T1 sequence: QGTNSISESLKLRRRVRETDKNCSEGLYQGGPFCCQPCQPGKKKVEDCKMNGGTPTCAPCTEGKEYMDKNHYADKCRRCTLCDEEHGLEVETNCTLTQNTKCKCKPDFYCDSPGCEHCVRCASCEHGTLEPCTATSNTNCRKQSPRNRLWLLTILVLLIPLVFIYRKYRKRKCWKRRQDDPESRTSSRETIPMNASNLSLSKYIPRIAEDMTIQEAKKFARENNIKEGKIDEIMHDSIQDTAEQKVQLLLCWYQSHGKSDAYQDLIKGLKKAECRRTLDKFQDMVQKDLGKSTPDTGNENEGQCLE

[3] = biological target: T1, Fas (death receptor), mouse (mouse (endogenous in splenic CD8+ T cells of C57BL/6 mice)); assay: condition: only cells treated with 400 ng/mL rHGF for 48 and 72 h; co-IP; as a1, but cells treated with 400 ng/mL rHGF for 48 and 72 h before lysis
[4] = biological target: T2, Fas (death receptor), mouse (mouse (endogenous in splenic CD8+ T cells of C57BL/6 mice)), P25446; assay: co-IP; DISC analysis: lysates of naive and PHA-stimulated mouse splenic CD8+ T cells treated with 400 ng/mL rHGF (48 and 72 h); IP with anti-Fas, IB with anti-FADD, anti-caspase-8 and anti-caspase-3; settings: remark: other sources report otherwise
T2 chain: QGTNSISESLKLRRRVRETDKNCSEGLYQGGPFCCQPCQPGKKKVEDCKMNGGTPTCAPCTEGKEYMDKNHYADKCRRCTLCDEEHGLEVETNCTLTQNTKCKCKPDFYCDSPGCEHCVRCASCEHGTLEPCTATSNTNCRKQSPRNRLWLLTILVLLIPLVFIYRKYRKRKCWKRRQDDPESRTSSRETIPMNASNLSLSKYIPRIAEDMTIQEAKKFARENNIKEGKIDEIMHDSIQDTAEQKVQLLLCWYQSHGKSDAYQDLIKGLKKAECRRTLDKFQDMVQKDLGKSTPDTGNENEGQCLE

[5] = biological target: T1, Fas (death receptor), mouse (mouse (endogenous in splenic CD8+ T cells of C57BL/6 mice)); assay: as above

c-Met (hepatocyte growth factor receptor), human (from UniProt P08581 25-1390)
binding [1]: binds

c-Met (hepatocyte growth factor receptor), mouse (from UniProt P16056 25-1379)
binding [2]: binds
binding [3]: no binding

B1: Fas-associated death domain (FADD), mouse, Q61160 1-205 (protein)
chain: MDPFLVLLHSLSGSLSGNDLMELKFLCRERVSKRKLERVQSGLDLFTVLLEQNDLERGHTGLLRELLASLRRHDLLQRLDDFEAGTATAAPPGEADLQVAFDIVCDNVGRDWKRLARELKVSEAKMDGIEEKYPRSLSERVRESLKVWKNAEKKNASVAGLVKALRTCRLNLVADLVEEAQESVSKSENMSPVLRDSTVSSSETP
binding [4]: binds

B2: caspase-8, mouse (enzyme, UniProt O89110 1-480)
chain: MDFQSCLYAIAEELGSEDLAALKFLCLDYIPHKKQETIEDAQKLFLRLREKGMLEEGNLSFLKELLFHISRWDLLVNFLDCNREEMVRELRDPDNAQISPYRVMLFKLSEEVSELELRSFKFLLNNEIPKCKLEDDLSLLEIFVEMEKRTMLAENNLETLKSICDQVNKSLLGKIEDYERSSTERRMSLEGREELPPSVLDEMSLKMAELCDSPREQDSESRTSDKVYQMKNKPRGYCLIINNHDFSKAREDITQLRKMKDRKGTDCDKEALSKTFKELHFEIVSYDDCTANEIHEILEGYQSADHKNKDCFICCILSHGDKGVVYGTDGKEASIYDLTSYFTGSKCPSLSGKPKIFFIQACQGSNFQKGVPDEAGFEQQNHTLEVDSSSHKNYIPDEADFLLGMATVKNCVSYRDPVNGTWYIQSLCQSLRERCPQGDDILSILTGVNYDVSNKDDRRNKGKQMPQPTFTLRKKLFFPP
binding [5]: binds
